Test results taken from PubChem BioAssay AID540275 (National Center for Advancing Translational Sciences (NCATS), 2011).
Among all 320,000 compounds or so, about 620 (0.19%) were called active. The shares of active, inactive and inconclusive entries below differ from those in the screen. Rule as the data show it: active = activation above about 80%; inconclusive = between about 30% and that limit; inactive = weaker than that.

By UniProt entry, the sequences of proteins in these tests, tags left out.
UniProt Q8NER1, whole entry, looked up: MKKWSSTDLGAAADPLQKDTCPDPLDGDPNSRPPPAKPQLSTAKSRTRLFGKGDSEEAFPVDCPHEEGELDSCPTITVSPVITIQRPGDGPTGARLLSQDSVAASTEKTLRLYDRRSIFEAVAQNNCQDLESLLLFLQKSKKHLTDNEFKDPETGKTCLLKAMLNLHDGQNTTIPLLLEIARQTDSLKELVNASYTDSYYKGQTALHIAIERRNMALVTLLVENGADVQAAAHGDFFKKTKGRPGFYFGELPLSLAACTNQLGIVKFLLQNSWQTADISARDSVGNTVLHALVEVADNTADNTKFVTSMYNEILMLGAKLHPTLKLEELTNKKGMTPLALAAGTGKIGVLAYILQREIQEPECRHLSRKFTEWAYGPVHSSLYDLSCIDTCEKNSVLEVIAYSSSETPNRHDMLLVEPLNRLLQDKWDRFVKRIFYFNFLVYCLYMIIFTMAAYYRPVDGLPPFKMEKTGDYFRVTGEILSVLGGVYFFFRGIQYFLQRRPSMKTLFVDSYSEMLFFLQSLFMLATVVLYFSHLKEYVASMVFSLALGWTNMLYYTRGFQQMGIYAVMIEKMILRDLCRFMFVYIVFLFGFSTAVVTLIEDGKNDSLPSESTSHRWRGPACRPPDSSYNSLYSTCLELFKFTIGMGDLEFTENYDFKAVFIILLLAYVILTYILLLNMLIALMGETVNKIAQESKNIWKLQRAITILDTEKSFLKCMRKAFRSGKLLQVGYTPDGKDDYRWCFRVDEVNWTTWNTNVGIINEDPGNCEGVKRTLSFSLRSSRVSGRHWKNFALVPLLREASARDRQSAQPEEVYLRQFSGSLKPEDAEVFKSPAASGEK

Molecular target: Transient receptor potential cation channel subfamily V member 1 (Homo sapiens) (UniProt Q8NER1)
Experiment: HTS Assay for Compounds that Act as Agonists of the Vanilloid Receptor 1; also: 0% is about no effect
Details: TRPV1-expressing cells, Fluo-8 calcium influx, agonist mode; at 8.33 µM, hits give high values
Procedure, shortened: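 Cells expressing TRPV1 were dye-loaded with Fluo-8 and read kinetically: 10 s baseline, 3 min after compound (agonist portion), then 2 min after EC20 capsaicin (allosteric enhancer portion). Calcium-bound dye fluorescence at 480/520 nm.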

SMILES	activation
Cc1ccc(S(=O)(=O)N(C)c2ccc(C(=O)NCCc3ccccc3)cc2)cc1	inactive: 2.64%
O=C(c1ccccc1)N1CCCC(c2nc3c(nnn3Cc3ccccc3)c(=O)[nH]2)C1 (stereo not drawn)	inconclusive: 70.7%
O=C(O)CCC(NC(=O)c1ccc(Cl)cc1)C(=O)O (stereo not drawn)	inactive: -3.73%
Cc1ccc2c(c1)N(CC(=O)c1cccc(Cl)c1)C(=O)C(C)O2 (stereo not drawn)	inconclusive: 32.7%
CN1C(=O)C2C(c3ccc(N(C)C)cc3)=NN(Cc3ccccc3)C2C1=O (stereo not drawn)	inconclusive: 34.1%
Cc1cccc(NC(=O)c2cccc(Cn3cc(Br)c([N+](=O)[O-])n3)c2)c1C	inconclusive: 54.1%
CC(C)c1ccc(NC(=O)CSc2n[nH]c(=O)n2C2CC2)cc1	inconclusive: 44.1%
COCC1CCN(C(=O)c2cc(COc3ccc(F)cc3F)on2)C1 (stereo not drawn)	inconclusive: 52.9%
S=C(NCCc1ccccc1)N1CCOCC1	inconclusive: 62.3%
O=C(Nc1ccc(Oc2cccnc2)cc1)C1CCN(Cc2cc(Cl)ccc2O)CC1	inconclusive: 40.3%
Cc1ccc(/C=N/NC(=O)c2ccc(OC3CCCC3)cc2)o1	inconclusive: 33.6%
CC(=O)CSc1nc2ccccc2o1	inactive: -1.06%
CC1CCCC(NC(=O)c2cc(S(=O)(=O)N3CCCCC3)ccc2Cl)C1C (stereo not drawn)	inconclusive: 32.2%
O=S(=O)(Cc1ccccc1Cl)c1ncn[nH]1	inactive: -0.0146%
Cc1ccc(C(=O)NC2CCCC(C)C2C)cc1S(=O)(=O)N1CCCCC1 (stereo not drawn)	inconclusive: 30.4%
CCN(CC)S(=O)(=O)c1ccc2[nH]cc(C(=O)NCCc3ccccc3)c(=O)c2c1	inconclusive: 38.3%
CCN(CC)c1ccc(NC(=O)C2CCCN(S(=O)(=O)c3cccnc3)C2)c(C)c1 (stereo not drawn)	inconclusive: 78.5%
Cc1cccc(NC(=O)c2ccc(S(=O)(=O)N3CCCCC3)cc2)c1	inconclusive: 65.8%
Cc1ccc(CNC(=O)c2cc3c(s2)CS(=O)(=O)C3)cc1	inconclusive: 70.7%
Cc1c(O)ccc(/C=N/Nc2ncccc2[N+](=O)[O-])c1O	inactive: -0.789%

SMILES	activation
COCC(=O)OCC(=O)N1N=C(c2ccc(Cl)cc2)CC1c1ccco1 (stereo not drawn)	inactive: -2.44%
CCOC(=O)/C(=C/C=C1\Sc2cc(OCC)c(OCC)cc2N1CC)C(C)=O	inconclusive: 71.1%
FC(F)Oc1ccc(NC(=S)NC23CC4CC(CC(C4)C2)C3)cc1	inconclusive: 44.9%
O=C(c1cc(COc2c(F)cccc2F)on1)N1CCc2ccccc2C1	inconclusive: 45.7%
COc1ccc(CNC(=O)CN(CCC(C)C)S(=O)(=O)c2ccc3c(c2)OCCO3)cc1	inconclusive: 61.3%
CC(C)C(=O)NNC(=O)CSc1ncnc2c1cnn2-c1ccccc1Cl	inactive: -4.09%
CCOc1ccc2nc(NC(=O)c3ccc(OC)c(S(=O)(=O)N4CCOCC4)c3)sc2c1	inactive: -1.91%
CCc1cc(C(=O)NNC(=S)NC2CCCCC2)cs1	inactive: 24.9%
Cc1ccc(N(CC(=O)NCc2ccco2)C(=O)CNS(=O)(=O)c2ccccc2)c(C)c1	inactive: -0.585%
COc1ccc(CC(=O)Nc2nc(-c3ccc(OC)c(OC)c3)cs2)cc1OC	inconclusive: 67.6%
CCOCC(=O)Nc1ccccc1C(=O)O	inactive: 0.205%
O=C(Nc1ccccc1)C1C2/C=C\CCCCC21 (stereo not drawn)	inconclusive: 43.7%
Cc1ccccc1C(=O)Nc1ccccc1C(=O)NCc1ccccc1	inconclusive: 36.9%
O=C(C#Cc1cccc([N+](=O)[O-])c1)c1ccccc1	inconclusive: 41.6%
CCOc1ccc(C(=O)NCC(=O)OCc2c(F)cccc2Cl)cc1	inactive: 16.3%
Cc1ccc(C(=O)N/C(=C\c2cn(C)c3ccccc23)C(=O)NCCCn2ccnc2)cc1	inactive: 1.89%
CCOC(=O)[C@H]1[C@H]2COc3ccc(Br)cc3[C@@H]2N2C(=O)c3cc(F)c(F)cc3NC(=O)[C@@]12C	active: 84.1%
COC(=O)C(C)Oc1ccc2c(-c3cccc([N+](=O)[O-])c3)cc(=O)oc2c1 (stereo not drawn)	inconclusive: 36.1%
CSc1ccc(NC(=O)N2CCC(C(=O)c3ccc(F)cc3)CC2)cc1	inconclusive: 64.5%
[O-]/C(=C(\C(=S)Nc1cccc2ccccc12)[n+]1ccccc1)c1cccs1	inactive: -1.4%

Four of the compounds above, with bars between the fields:
SMILES | activation
FC(F)Oc1ccc(NC(=S)NC23CC4CC(CC(C4)C2)C3)cc1 | inconclusive: 44.9%
COc1ccc(CNC(=O)CN(CCC(C)C)S(=O)(=O)c2ccc3c(c2)OCCO3)cc1 | inconclusive: 61.3%
Cc1ccc(N(CC(=O)NCc2ccco2)C(=O)CNS(=O)(=O)c2ccccc2)c(C)c1 | inactive: -0.585%
CSc1ccc(NC(=O)N2CCC(C(=O)c3ccc(F)cc3)CC2)cc1 | inconclusive: 64.5%

The list continues:

SMILES	activation
CC(C)(C)C(=O)NC(=S)Nc1sc2c(c1C#N)CCCCC2	inactive: -1.58%
O=C1c2ccccc2C(=O)N1CCC(c1ccccc1)c1ccco1 (stereo not drawn)	inconclusive: 40.9%
COc1cc(C(=O)n2nc(C)cc2C)ccc1O	inactive: -2.4%
CCCCOc1ccc(C(=O)Nc2ccc(N3CCN(C)CC3)cc2)cc1	inactive: 26.4%
Cc1cc(NCCCN2CCOCC2)n2ncc(-c3ccc(Cl)cc3)c2n1	inactive: 0.569%
O=C(CCSc1ccc(Cl)cc1)NN=C1CCCCCC1	inconclusive: 65.4%
CNC(=S)N1CCN(c2nc(-c3ccc(Cl)cc3)cs2)CC1	inconclusive: 59.3%
CC1CN(C(=S)NC(=O)c2ccco2)CC(C)O1 (stereo not drawn)	inactive: -5.35%
CC(Sc1ccccc1)C(=O)N1CCN(S(=O)(=O)c2cccc(Br)c2)CC1 (stereo not drawn)	inconclusive: 32.5%
CCOC(=O)c1sc(NC(=O)CCc2ccc(OC)cc2)nc1C	inactive: -1.55%
CCOC(=O)c1[nH]c2ccc(OC)cc2c1NC(=O)c1nonc1C	inconclusive: 36.1%
C=CCn1c(SCC(=O)NC(=O)Cc2ccccc2)nc2ccccc2c1=O	inconclusive: 30.5%
CCOc1cccc(C(=O)Nc2ccc3[nH]ncc3c2)c1	inconclusive: 76.4%
CCOCC(=O)Nc1c(C(=O)Nc2ccc3c(c2)OCO3)oc2ccccc12	inconclusive: 45.7%
COc1cccc(-c2sc3ccc(OC)cc3c2-c2ccc(O)cc2)c1	inactive: 3.37%
S=C(NCCc1ccc(Cl)cc1)NC1CCCC1	inconclusive: 69.8%
CSc1nc(C)c2c(n1)N(c1ccc(C(C)C)cc1)CC2	inconclusive: 39.2%
COc1ccc(C(=O)NCCSCc2ccc(C)cc2)cc1	inconclusive: 63.5%
